Assay results from PMC6389893.
Results are given in words; binding and its absence hold for the method and conditions named. Binding seen in cells or lysates may run through a third protein. Binding can be weak; no strength is given.

Target: GST-IN full length (HIV-1)
Assay: pull-down; GST pull-down of wild-type TRIM33 and its RING and PHD point mutants with IN (Supplementary Fig. 6c); how the TRIM33 proteins were made is not told for this panel

B1: TRIM33 RING(C125A/C128A) (protein, UniProt Q9UPN9 1-1127)
chain: MAENKGGGEAESGGGGSGSAPVTAGAAGPAAQEAEPPLTAVLVEEEEEEGGRAGAEGGAAGPDDGGVAAASSGSAQAASSPAASVGTGVAGGAVSTPAPAPASAPAPGPSAGPPPGPPASLLDTAAVAQQSLQSRREAEPKLLPCLHSFCLRCLPEPERQLSVPIPGGSNGDIQQVGVIRCPVCRQECRQIDLVDNYFVKDTSEAPSSSDEKSEQVCTSCEDNASAVGFCVECGEWLCKTCIEAHQRVKFTKDHLIRKKEDVSESVGASGQRPVFCPVHKQEQLKLFCETCDRLTCRDCQLLEHKEHRYQFLEEAFQNQKGAIENLLAKLLEKKNYVHFAATQVQNRIKEVNETNKRVEQEIKVAIFTLINEINKKGKSLLQQLENVTKERQMKLLQQQNDITGLSRQVKHVMNFTNWAIASGSSTALLYSKRLITFQLRHILKARCDPVPAANGAIRFHCDPTFWAKNVVNLGNLVIESKPAPGYTPNVVVGQVPPGTNHISKTPGQINLAQLRLQHMQQQVYAQKHQQLQQMRMQQPPAPVPTTTTTTQQHPRQAAPQMLQQQPPRLISVQTMQRGNMNCGAFQAHQMRLAQNAARIPGIPRHSGPQYSMMQPHLQRQHSNPGHAGPFPVVSVHNTTINPTSPTTATMANANRGPTSPSVTAIELIPSVTNPENLPSLPDIPPIQLEDAGSSSLDNLLSRYISGSHLPPQPTSTMNPSPGPSALSPGSSGLSNSHTPVRPPSTSSTGSRGSCGSSGRTAEKTSLSFKSDQVKVKQEPGTEDEICSFSGGVKQEKTEDGRRSACMLSSPESSLTPPLSTNLHLESELDALASLENHVKIEPADMNESCKQSGLSSLVNGKSPIRSLMHRSARIGGDGNNKDDDPNEDWCAVCQNGGDLLCCEKCPKVFHLTCHVPTLLSFPSGDWICTFCRDIGKPEVEYDCDNLQHSKKGKTAQGLSPVDQRKCERLLLYLYCHELSIEFQEPVPASIPNYYKIIKKPMDLSTVKKKLQKKHSQHYQIPDDFVADVRLIFKNCERFNEMMKVVQVYADTQEINLKADSEVAQAGKAVALYFEDKLTEIYSDRTFAPLPEFEQEEDDGEVTEDSDEDFIQPRRKRLKSDERPVHIK
Q: For B1, which binding is on record?
A: binds
